These results are taken from the supplement of paper PMC6411743.

Chains of the proteins cited; added tags and fusions are not shown. Lines headed by an entry give the natural chain unless they say otherwise; changes in a name come on top.
UniProt Q5T3I0: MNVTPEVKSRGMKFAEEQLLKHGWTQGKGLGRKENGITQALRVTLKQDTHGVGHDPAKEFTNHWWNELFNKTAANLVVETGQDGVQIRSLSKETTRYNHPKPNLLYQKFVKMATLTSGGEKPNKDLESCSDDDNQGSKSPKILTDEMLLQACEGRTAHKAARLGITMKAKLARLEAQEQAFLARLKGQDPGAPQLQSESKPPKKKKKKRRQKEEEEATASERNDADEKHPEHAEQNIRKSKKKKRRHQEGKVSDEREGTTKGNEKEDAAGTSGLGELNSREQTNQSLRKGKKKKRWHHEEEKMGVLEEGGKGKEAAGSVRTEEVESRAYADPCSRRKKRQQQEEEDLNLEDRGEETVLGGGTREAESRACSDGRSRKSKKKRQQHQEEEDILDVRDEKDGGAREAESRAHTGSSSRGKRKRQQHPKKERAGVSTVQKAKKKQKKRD
UniProt Q1ED39: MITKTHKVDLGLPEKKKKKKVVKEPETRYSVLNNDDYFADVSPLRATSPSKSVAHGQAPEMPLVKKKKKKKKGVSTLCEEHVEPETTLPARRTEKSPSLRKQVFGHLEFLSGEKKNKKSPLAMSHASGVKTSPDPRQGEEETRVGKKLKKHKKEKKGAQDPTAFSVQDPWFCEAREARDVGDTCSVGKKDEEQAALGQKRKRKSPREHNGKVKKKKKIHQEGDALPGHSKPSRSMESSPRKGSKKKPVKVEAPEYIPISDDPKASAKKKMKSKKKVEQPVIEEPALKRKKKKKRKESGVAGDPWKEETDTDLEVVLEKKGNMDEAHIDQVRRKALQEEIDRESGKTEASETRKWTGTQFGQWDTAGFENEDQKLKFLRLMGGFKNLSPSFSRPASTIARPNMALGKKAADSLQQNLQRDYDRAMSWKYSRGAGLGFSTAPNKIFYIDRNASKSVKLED
UniProt Q53S33: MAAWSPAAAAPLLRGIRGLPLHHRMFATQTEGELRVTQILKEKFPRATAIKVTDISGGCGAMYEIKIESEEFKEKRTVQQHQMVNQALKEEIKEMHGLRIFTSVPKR
UniProt Q9UKD1: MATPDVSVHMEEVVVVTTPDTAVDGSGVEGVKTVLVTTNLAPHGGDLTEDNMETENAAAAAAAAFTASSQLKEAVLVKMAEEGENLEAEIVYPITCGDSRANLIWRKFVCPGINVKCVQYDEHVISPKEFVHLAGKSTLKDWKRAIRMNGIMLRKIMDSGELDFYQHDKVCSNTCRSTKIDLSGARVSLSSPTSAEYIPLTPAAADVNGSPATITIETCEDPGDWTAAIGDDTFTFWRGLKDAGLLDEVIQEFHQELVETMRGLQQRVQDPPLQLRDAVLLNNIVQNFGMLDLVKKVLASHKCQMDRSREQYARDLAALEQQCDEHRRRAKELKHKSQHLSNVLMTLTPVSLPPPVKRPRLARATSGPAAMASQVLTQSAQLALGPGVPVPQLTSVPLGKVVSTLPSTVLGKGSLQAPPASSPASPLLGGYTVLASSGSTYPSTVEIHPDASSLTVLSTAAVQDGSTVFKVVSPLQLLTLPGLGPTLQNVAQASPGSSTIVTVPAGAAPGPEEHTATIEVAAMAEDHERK
UniProt Q9H4A5: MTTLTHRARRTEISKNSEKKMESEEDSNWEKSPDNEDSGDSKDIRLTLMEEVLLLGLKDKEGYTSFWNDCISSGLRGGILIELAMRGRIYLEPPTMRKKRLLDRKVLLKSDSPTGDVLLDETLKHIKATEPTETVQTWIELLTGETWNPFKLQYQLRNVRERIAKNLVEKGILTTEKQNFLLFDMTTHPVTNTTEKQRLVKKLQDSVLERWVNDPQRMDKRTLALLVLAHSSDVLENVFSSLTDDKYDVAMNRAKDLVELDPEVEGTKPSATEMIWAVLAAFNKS
UniProt Q3V6T2: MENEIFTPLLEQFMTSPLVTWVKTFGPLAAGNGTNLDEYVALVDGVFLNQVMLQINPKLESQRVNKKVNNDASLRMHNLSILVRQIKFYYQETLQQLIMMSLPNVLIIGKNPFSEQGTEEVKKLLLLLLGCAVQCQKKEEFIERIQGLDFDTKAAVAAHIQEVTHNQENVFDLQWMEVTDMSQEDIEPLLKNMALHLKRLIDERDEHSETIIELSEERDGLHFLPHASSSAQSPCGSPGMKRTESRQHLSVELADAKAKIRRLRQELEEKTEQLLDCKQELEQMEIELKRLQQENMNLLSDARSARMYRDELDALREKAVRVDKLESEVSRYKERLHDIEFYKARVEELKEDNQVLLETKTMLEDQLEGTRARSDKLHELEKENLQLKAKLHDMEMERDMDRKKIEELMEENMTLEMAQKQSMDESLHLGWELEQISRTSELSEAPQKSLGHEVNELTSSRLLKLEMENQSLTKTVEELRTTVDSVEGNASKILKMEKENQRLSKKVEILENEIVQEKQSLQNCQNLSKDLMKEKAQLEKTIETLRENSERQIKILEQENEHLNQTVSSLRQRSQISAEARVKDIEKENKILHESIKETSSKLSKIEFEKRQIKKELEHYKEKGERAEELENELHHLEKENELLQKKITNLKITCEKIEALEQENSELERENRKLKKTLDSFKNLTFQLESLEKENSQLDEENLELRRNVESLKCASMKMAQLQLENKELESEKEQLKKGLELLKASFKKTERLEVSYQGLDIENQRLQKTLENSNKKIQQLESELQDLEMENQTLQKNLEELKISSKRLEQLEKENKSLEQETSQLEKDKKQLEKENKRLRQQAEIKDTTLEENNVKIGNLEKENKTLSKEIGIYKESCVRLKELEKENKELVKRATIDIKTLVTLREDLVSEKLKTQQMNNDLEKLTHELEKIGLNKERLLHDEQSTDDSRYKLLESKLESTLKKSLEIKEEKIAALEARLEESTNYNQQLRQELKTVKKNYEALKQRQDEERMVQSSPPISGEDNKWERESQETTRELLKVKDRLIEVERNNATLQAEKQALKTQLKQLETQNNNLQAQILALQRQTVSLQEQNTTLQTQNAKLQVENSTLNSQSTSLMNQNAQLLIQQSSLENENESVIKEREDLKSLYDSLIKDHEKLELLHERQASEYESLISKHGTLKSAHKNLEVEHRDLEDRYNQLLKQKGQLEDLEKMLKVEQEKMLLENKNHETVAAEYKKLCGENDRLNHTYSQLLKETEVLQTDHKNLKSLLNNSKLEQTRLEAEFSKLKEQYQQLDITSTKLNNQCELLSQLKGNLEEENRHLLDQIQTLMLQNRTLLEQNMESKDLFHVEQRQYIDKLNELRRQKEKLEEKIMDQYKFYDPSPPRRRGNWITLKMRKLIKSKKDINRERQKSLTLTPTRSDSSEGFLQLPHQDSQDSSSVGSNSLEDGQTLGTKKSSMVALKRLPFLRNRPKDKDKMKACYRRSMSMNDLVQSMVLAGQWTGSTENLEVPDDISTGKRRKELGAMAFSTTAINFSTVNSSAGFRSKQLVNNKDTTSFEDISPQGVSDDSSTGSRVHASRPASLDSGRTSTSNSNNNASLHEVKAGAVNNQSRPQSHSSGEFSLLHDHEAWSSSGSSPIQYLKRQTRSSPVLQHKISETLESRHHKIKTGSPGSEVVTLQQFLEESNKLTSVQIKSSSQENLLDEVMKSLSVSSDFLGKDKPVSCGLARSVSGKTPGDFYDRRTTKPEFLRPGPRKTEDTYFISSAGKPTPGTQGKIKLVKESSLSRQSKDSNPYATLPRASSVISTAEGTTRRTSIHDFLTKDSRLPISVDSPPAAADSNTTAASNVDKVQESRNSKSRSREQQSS
UniProt Q5SQI0: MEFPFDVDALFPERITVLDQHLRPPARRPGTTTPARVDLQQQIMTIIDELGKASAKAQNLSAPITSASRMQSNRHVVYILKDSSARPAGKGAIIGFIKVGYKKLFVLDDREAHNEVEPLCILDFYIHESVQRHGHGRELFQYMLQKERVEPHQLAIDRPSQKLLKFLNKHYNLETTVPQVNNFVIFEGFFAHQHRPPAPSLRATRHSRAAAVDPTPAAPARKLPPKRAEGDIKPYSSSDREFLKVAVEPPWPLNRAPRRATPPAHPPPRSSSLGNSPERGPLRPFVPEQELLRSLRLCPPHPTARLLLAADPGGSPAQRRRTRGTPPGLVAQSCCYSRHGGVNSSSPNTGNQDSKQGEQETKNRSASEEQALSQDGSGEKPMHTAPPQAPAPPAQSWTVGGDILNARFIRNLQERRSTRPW
UniProt Q4J6C6, whole entry: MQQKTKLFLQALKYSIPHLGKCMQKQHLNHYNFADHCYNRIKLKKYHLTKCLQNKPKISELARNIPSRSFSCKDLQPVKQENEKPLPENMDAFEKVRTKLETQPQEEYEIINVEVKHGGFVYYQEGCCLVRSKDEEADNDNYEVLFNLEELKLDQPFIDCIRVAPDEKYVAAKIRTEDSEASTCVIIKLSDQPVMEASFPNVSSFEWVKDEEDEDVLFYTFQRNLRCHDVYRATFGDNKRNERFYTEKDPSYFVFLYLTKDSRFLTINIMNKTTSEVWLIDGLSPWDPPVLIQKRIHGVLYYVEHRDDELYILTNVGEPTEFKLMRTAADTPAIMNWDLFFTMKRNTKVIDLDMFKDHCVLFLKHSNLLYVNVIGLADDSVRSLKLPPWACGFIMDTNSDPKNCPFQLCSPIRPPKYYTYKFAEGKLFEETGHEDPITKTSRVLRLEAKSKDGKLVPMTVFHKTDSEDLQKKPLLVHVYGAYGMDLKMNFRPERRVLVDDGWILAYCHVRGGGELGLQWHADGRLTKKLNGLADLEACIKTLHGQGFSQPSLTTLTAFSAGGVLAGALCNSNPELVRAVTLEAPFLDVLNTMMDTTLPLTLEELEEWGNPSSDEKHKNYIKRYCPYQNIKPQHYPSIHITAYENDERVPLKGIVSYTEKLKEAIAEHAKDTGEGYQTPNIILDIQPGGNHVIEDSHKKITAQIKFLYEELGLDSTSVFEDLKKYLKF
UniProt Q15126: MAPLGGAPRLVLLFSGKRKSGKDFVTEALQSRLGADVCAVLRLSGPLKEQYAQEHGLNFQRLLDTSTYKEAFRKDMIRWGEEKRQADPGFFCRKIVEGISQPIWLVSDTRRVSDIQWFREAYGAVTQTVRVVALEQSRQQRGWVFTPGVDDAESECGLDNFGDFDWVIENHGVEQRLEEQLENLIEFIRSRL
UniProt Q5RKV6, whole entry: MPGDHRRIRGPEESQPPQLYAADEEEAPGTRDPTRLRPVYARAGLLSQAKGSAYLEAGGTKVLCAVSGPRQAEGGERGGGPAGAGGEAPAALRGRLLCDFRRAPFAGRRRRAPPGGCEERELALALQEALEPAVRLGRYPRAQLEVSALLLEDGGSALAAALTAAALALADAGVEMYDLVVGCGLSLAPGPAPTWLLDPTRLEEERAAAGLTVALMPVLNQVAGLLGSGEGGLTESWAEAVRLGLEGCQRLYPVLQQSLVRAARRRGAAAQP
UniProt Q3ZAQ7: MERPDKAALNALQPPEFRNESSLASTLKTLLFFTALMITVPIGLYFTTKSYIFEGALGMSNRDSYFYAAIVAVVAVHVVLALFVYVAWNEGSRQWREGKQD
UniProt Q15120, whole entry, looked up: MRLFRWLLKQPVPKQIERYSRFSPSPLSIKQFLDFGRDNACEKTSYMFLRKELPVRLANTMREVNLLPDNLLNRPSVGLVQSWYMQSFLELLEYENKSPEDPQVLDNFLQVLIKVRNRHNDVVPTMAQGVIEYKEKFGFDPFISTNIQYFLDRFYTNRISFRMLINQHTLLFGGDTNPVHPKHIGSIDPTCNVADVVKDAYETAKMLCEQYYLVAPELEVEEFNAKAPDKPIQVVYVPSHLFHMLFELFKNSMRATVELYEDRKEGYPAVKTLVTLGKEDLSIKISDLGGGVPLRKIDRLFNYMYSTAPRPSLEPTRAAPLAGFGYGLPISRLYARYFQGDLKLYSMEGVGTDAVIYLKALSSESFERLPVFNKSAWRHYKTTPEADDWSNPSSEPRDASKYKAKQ
UniProt Q32P28: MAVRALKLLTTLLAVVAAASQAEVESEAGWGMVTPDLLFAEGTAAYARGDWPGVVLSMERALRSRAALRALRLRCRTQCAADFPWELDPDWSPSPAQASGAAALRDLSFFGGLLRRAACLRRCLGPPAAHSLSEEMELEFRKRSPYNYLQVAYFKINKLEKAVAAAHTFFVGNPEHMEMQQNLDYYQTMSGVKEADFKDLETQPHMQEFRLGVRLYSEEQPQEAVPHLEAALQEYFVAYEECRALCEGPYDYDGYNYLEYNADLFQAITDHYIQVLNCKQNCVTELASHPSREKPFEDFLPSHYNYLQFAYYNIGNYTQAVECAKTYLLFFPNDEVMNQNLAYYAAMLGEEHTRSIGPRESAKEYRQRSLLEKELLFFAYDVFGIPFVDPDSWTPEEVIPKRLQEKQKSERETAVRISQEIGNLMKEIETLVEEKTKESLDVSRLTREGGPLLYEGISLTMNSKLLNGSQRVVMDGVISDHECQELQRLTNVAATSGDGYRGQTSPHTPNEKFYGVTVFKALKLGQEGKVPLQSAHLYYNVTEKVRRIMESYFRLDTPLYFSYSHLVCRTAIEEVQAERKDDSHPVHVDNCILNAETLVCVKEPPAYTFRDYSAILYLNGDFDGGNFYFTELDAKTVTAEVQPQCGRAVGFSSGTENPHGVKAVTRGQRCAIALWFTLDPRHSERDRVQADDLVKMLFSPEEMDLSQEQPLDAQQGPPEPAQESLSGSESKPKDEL

± gives the standard deviation of the averaged measurements. Some of the results follow.

Compound in this test: Nc1nc2c(ncn2[C@@H]2O[C@H](COP(=O)(O)OP(=O)(O)OP(=O)(O)O)[C@@H](O)[C@H]2O)c(=O)[nH]1 [guanosine triphosphate]
Nature of the test: NP40-soluble protein abundance relative to vehicle (solubility fold change) (ratio); higher = more soluble protein in presence of GTP. The method, boiled down: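 Jurkat crude lysate (Dounce-homogenised) was treated with eight concentrations from 0.1 to 10 mM for 10 min at room temperature, then 3 min at 37 °C. It was solubilised with 0.8% NP40 and benzonase (60 min, 4 °C) and ultracentrifuged, and the supernatant was TMT-labelled for LC-MS/MS. Intensities were vsn-normalised, and the value is the fold change against the NP40-processed vehicle per replicate, from three independent experiments.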

UniProt Q16181-2: the NP40-soluble protein abundance reads like this: (concentration: 0.1mM) 1.02 ± 0.015; (concentration: 0.5mM) 1.02 ± 0.012; (concentration: 1mM) 0.9706 ± 0.0042; (concentration: 2mM) 0.932 ± 0.012; (concentration: 4mM) 0.937 ± 0.012; (concentration: 6mM) 0.928 ± 0.015. The NP40-soluble protein abundance runs as follows: (concentration: 8mM) 0.95 ± 0.012; (concentration: 10mM) 0.891 ± 0.023.

As to UniProt Q5T3I0 and related entries, the NP40-soluble protein abundance by setting is: (concentration: 0.1mM) 0.995 ± 0.088; (concentration: 0.5mM) 1.05 ± 0.1; (concentration: 1mM) 1.13 ± 0.21; (concentration: 2mM) 1.19 ± 0.17; (concentration: 4mM) 1.32 ± 0.24; (concentration: 6mM) 1.33 ± 0.094. Also, the NP40-soluble protein abundance is 1.46 ± 0.32 (concentration: 8mM) and 1.49 ± 0.22 (concentration: 10mM).

Regarding UniProt Q1ED39, the NP40-soluble protein abundance (concentration: 0.1mM) was determined as 0.995 ± 0.035; the NP40-soluble protein abundance (concentration: 0.5mM) was 0.984 ± 0.031; the NP40-soluble protein abundance (concentration: 1mM) is 1.09 ± 0.039; the NP40-soluble protein abundance (concentration: 2mM) was 1.14 ± 0.014; the NP40-soluble protein abundance (concentration: 4mM) turned out to be 1.17 ± 0.052; the NP40-soluble protein abundance (concentration: 6mM) came to 1.25 ± 0.062. In addition, the NP40-soluble protein abundance is, setting by setting: (concentration: 8mM) 1.33 ± 0.06; (concentration: 10mM) 1.42 ± 0.059.

Take BOLA3 (UniProt Q53S33): the NP40-soluble protein abundance reads like this: (concentration: 0.1mM) 0.893 ± 0.02; (concentration: 0.5mM) 0.843 ± 0.047; (concentration: 1mM) 0.962 ± 0.065; (concentration: 2mM) 0.982 ± 0.03; (concentration: 4mM) 0.953 ± 0.022; (concentration: 6mM) 0.966 ± 0.061. Moreover, the NP40-soluble protein abundance runs as follows: (concentration: 8mM) 0.925 ± 0.09; (concentration: 10mM) 1.01 ± 0.042.

For “Q5JTV1 and related entries (UniProt Q9UKD1)”, the NP40-soluble protein abundance is, setting by setting: (concentration: 0.1mM) 1.01 ± 0.068; (concentration: 0.5mM) 1.04 ± 0.029; (concentration: 1mM) 0.954 ± 0.063; (concentration: 2mM) 0.961 ± 0.039; (concentration: 4mM) 0.934 ± 0.069; (concentration: 6mM) 0.97 ± 0.093. For the same target, the NP40-soluble protein abundance worked out at 0.963 ± 0.1 (concentration: 8mM) and 0.968 ± 0.061 (concentration: 10mM).

Turning to “Q5T5I6 and related entries (UniProt Q9H4A5)”, the NP40-soluble protein abundance runs as follows: (concentration: 0.1mM) 0.96 ± 0.075; (concentration: 0.5mM) 0.928 ± 0.09; (concentration: 1mM) 0.956 ± 0.12; (concentration: 2mM) 0.951 ± 0.14; (concentration: 4mM) 0.935 ± 0.074; (concentration: 6mM) 0.928 ± 0.12. For the same target, the NP40-soluble protein abundance (concentration: 8mM) turned out to be 0.913 ± 0.17 and the NP40-soluble protein abundance (concentration: 10mM) came out at 0.892 ± 0.17.

As for UniProt Q3V6T2 and related entries, the NP40-soluble protein abundance by setting is: (concentration: 0.1mM) 1.03 ± 0.034; (concentration: 0.5mM) 1.02 ± 0.071; (concentration: 1mM) 1.03 ± 0.058; (concentration: 2mM) 1.02 ± 0.06; (concentration: 4mM) 1.01 ± 0.046; (concentration: 6mM) 0.988 ± 0.063. The NP40-soluble protein abundance amounted to 1.01 ± 0.099 (concentration: 8mM) and 0.997 ± 0.057 (concentration: 10mM).

For the target UniProt Q5SQI0 and related entries, the NP40-soluble protein abundance by setting is: (concentration: 0.1mM) 1.02 ± 0.085; (concentration: 0.5mM) 1.01 ± 0.13; (concentration: 1mM) 0.993 ± 0.13; (concentration: 2mM) 1.02 ± 0.15; (concentration: 4mM) 0.974 ± 0.1; (concentration: 6mM) 1.01 ± 0.074. Moreover, the NP40-soluble protein abundance was determined as 0.968 ± 0.048 (concentration: 8mM) and 0.978 ± 0.14 (concentration: 10mM).

Regarding UniProt Q4J6C6 and related entries, the NP40-soluble protein abundance amounted to 1.02 ± 0.045 (concentration: 0.1mM); 1.02 ± 0.052 (concentration: 0.5mM); 0.984 ± 0.041 (concentration: 1mM); 0.964 ± 0.032 (concentration: 2mM); 0.928 ± 0.039 (concentration: 4mM); 0.937 ± 0.025 (concentration: 6mM). Further, the NP40-soluble protein abundance runs as follows: (concentration: 8mM) 0.945 ± 0.013; (concentration: 10mM) 0.887 ± 0.045.

UniProt Q15020 and related entries: the NP40-soluble protein abundance (concentration: 0.1mM) was 1 ± 0.03; the NP40-soluble protein abundance (concentration: 0.5mM) is 1.04 ± 0.025; the NP40-soluble protein abundance (concentration: 1mM) amounted to 0.994 ± 0.018; the NP40-soluble protein abundance (concentration: 2mM) is 0.994 ± 0.034; the NP40-soluble protein abundance (concentration: 4mM) turned out to be 0.99 ± 0.035; the NP40-soluble protein abundance (concentration: 6mM) came to 1 ± 0.038. The NP40-soluble protein abundance was found to be 1.03 ± 0.078 (concentration: 8mM) and 0.99 ± 0.044 (concentration: 10mM).

Turning to PMVK (UniProt Q15126), the NP40-soluble protein abundance (concentration: 0.1mM) stood at 0.969 ± 0.043; the NP40-soluble protein abundance (concentration: 0.5mM) was determined as 0.919 ± 0.022; the NP40-soluble protein abundance (concentration: 1mM) was 0.921 ± 0.047; the NP40-soluble protein abundance (concentration: 2mM) was 0.89 ± 0.0092; the NP40-soluble protein abundance (concentration: 4mM) stood at 0.893 ± 0.053; the NP40-soluble protein abundance (concentration: 6mM) turned out to be 0.885 ± 0.036. Further, the NP40-soluble protein abundance reads like this: (concentration: 8mM) 0.85 ± 0.07; (concentration: 10mM) 0.846 ± 0.061.

With EXOSC6 (UniProt Q5RKV6), the NP40-soluble protein abundance is 1.07 ± 0.068 (concentration: 0.1mM); 1.01 ± 0.029 (concentration: 0.5mM); 1.07 ± 0.035 (concentration: 1mM); 1.12 ± 0.054 (concentration: 2mM); 1.24 ± 0.14 (concentration: 4mM); 1.23 ± 0.12 (concentration: 6mM). The NP40-soluble protein abundance reads like this: (concentration: 8mM) 1.25 ± 0.056; (concentration: 10mM) 1.27 ± 0.093.

VMA21 (UniProt Q3ZAQ7): the NP40-soluble protein abundance is, setting by setting: (concentration: 0.1mM) 0.9959 ± 0.0065; (concentration: 0.5mM) 0.947 ± 0.034; (concentration: 1mM) 0.947 ± 0.013; (concentration: 2mM) 0.942 ± 0.04; (concentration: 4mM) 0.95 ± 0.049; (concentration: 6mM) 0.937 ± 0.034. Further, the NP40-soluble protein abundance came out at 0.885 ± 0.036 (concentration: 8mM) and 0.9501 ± 0.0088 (concentration: 10mM).

Consider UniProt Q15120 and related entries, for which the NP40-soluble protein abundance (concentration: 0.1mM) is 1.14 ± 0.17; the NP40-soluble protein abundance (concentration: 0.5mM) is 1.21 ± 0.28; the NP40-soluble protein abundance (concentration: 1mM) amounted to 1.27 ± 0.31; the NP40-soluble protein abundance (concentration: 2mM) was found to be 1.29 ± 0.34; the NP40-soluble protein abundance (concentration: 4mM) was determined as 1.39 ± 0.34; the NP40-soluble protein abundance (concentration: 6mM) amounted to 1.31 ± 0.36. Also, the NP40-soluble protein abundance amounted to 1.33 ± 0.33 (concentration: 8mM) and 1.24 ± 0.28 (concentration: 10mM).

On to UniProt Q32P28 and related entries, for which the NP40-soluble protein abundance is, setting by setting: (concentration: 0.1mM) 1.01 ± 0.022; (concentration: 0.5mM) 1.09 ± 0.025; (concentration: 1mM) 1.09 ± 0.036; (concentration: 2mM) 1.14 ± 0.053; (concentration: 4mM) 1.2 ± 0.04; (concentration: 6mM) 1.15 ± 0.013. The NP40-soluble protein abundance by setting is: (concentration: 8mM) 1.21 ± 0.033; (concentration: 10mM) 1.21 ± 0.032.
